Laboratory results reported in the supplement of paper PMC10849652.
The list shows a part of the results.

The chains behind the UniProt entries cited, without tags or fusion partners. Where a name states a change or a piece, a line headed by the entry shows the natural chain unless it says otherwise.
UniProt Q92604: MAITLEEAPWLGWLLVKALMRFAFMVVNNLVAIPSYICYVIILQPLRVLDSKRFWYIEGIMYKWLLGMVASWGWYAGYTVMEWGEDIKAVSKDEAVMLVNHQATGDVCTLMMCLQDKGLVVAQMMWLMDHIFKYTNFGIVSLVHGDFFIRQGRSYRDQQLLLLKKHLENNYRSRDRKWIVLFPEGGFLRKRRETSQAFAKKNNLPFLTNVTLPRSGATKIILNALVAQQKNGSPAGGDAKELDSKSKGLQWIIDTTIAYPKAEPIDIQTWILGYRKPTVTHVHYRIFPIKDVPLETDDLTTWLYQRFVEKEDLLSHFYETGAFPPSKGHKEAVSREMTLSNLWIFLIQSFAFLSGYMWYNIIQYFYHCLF
UniProt Q9BX40: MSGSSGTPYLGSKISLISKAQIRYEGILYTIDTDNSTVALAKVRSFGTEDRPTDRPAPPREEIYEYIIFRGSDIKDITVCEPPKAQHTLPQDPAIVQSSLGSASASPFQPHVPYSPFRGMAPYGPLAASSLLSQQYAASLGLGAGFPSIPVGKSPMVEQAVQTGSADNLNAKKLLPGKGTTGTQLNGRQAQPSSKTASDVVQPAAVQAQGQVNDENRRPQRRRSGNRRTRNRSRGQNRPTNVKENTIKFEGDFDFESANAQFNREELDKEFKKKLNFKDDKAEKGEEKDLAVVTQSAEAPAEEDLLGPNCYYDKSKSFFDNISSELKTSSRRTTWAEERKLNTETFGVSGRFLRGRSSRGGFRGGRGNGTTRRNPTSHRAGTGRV
UniProt Q86X29: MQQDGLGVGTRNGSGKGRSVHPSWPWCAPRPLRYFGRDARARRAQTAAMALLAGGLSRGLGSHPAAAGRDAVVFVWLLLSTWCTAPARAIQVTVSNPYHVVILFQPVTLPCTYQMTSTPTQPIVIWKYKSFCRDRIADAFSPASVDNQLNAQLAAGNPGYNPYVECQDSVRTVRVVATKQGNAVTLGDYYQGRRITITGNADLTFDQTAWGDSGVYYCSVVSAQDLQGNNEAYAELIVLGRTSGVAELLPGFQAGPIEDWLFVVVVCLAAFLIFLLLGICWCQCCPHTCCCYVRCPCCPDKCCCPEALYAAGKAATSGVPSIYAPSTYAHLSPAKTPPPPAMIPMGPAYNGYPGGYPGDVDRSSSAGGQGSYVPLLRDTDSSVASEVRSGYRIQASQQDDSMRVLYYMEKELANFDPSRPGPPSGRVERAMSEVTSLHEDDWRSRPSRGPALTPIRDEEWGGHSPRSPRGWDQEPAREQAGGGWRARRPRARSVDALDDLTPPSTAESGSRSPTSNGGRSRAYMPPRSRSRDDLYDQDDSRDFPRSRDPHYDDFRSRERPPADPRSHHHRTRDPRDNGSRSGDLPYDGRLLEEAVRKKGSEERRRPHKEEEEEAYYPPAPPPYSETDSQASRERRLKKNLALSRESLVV
UniProt Q9Y2L9: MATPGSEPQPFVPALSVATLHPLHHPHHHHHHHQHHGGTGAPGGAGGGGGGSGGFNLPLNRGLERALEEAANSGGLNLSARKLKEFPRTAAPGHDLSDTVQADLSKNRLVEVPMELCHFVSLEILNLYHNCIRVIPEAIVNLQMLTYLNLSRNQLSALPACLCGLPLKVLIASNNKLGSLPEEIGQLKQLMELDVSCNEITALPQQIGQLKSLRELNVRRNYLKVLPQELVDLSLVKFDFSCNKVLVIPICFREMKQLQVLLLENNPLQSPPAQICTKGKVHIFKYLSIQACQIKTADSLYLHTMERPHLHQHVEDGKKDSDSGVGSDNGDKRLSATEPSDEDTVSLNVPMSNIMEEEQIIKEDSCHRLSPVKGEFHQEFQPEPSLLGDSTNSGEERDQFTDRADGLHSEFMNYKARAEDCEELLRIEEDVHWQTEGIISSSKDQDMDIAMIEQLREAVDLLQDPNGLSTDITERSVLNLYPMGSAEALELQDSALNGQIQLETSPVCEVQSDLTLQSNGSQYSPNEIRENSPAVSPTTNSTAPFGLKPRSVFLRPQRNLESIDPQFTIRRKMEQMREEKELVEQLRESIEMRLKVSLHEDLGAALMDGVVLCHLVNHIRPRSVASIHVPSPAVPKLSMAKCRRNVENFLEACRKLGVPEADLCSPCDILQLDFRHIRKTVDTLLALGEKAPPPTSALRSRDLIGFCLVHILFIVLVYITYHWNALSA
UniProt Q5TKA1: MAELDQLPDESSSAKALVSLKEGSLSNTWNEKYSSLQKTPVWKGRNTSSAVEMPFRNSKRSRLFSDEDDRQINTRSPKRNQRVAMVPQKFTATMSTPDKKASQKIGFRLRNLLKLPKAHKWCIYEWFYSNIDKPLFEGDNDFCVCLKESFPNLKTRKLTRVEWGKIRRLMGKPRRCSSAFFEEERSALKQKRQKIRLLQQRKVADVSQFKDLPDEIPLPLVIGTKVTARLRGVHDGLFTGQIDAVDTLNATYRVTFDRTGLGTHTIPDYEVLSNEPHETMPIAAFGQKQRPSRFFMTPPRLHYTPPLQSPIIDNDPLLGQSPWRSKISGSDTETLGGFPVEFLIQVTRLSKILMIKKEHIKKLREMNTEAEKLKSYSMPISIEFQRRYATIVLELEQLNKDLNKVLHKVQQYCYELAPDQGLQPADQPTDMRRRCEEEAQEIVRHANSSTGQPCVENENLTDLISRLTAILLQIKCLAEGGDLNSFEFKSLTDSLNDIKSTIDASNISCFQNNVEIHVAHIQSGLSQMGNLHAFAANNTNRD
UniProt O95835: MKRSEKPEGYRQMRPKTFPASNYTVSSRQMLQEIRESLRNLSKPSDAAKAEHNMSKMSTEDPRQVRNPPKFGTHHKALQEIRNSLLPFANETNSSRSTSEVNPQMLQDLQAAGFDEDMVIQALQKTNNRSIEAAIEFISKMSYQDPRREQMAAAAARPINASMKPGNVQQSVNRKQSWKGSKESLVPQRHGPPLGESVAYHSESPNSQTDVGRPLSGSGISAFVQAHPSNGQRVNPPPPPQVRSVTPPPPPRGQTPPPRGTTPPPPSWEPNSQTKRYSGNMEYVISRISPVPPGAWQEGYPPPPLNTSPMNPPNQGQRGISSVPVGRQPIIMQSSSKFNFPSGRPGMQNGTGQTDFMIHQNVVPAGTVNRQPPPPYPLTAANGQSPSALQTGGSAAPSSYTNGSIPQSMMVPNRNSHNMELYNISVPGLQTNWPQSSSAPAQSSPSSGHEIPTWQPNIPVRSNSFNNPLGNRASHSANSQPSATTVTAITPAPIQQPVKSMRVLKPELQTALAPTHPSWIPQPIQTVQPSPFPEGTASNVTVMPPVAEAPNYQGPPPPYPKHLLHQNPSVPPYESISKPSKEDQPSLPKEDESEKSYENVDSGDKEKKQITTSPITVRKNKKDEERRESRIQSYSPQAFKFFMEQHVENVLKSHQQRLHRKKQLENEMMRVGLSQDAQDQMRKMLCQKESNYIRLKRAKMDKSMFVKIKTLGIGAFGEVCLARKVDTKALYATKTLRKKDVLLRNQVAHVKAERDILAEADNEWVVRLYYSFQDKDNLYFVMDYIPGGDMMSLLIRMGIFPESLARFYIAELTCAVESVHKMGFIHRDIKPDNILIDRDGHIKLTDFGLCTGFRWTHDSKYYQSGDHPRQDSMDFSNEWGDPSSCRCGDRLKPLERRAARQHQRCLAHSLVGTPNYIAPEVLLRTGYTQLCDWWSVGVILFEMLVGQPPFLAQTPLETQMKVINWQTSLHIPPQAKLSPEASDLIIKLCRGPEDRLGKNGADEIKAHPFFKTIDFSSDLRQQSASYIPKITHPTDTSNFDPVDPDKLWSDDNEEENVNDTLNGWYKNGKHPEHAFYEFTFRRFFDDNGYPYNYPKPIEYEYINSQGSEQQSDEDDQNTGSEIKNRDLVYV
UniProt Q32MZ4: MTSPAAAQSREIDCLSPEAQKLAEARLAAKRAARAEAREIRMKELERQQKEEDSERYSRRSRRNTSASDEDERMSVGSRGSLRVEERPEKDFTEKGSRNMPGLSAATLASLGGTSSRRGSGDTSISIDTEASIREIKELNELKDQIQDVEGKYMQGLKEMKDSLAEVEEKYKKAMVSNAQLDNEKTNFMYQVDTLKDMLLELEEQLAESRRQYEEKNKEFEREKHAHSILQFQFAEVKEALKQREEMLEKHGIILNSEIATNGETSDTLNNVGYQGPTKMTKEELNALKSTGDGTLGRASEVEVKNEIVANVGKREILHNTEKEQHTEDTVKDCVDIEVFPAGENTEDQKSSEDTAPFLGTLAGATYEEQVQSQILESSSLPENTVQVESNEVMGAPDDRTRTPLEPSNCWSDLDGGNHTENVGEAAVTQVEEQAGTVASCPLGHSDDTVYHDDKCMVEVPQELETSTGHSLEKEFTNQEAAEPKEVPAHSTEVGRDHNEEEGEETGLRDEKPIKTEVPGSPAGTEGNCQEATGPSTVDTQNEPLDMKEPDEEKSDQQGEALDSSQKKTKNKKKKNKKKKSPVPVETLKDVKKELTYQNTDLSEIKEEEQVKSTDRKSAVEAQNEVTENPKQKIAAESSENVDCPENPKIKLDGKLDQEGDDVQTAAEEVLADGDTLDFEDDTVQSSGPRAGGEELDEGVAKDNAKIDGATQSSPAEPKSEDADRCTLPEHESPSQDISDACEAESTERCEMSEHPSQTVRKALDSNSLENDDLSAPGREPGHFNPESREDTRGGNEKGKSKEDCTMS
UniProt O00214: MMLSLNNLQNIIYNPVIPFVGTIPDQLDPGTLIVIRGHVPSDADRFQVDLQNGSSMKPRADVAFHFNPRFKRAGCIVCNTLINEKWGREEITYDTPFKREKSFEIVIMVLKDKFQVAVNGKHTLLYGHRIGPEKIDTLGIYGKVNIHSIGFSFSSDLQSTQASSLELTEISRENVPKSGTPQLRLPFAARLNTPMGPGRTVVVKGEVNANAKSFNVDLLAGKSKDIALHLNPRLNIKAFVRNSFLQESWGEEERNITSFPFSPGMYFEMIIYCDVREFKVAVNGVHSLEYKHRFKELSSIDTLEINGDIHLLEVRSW
UniProt P01130: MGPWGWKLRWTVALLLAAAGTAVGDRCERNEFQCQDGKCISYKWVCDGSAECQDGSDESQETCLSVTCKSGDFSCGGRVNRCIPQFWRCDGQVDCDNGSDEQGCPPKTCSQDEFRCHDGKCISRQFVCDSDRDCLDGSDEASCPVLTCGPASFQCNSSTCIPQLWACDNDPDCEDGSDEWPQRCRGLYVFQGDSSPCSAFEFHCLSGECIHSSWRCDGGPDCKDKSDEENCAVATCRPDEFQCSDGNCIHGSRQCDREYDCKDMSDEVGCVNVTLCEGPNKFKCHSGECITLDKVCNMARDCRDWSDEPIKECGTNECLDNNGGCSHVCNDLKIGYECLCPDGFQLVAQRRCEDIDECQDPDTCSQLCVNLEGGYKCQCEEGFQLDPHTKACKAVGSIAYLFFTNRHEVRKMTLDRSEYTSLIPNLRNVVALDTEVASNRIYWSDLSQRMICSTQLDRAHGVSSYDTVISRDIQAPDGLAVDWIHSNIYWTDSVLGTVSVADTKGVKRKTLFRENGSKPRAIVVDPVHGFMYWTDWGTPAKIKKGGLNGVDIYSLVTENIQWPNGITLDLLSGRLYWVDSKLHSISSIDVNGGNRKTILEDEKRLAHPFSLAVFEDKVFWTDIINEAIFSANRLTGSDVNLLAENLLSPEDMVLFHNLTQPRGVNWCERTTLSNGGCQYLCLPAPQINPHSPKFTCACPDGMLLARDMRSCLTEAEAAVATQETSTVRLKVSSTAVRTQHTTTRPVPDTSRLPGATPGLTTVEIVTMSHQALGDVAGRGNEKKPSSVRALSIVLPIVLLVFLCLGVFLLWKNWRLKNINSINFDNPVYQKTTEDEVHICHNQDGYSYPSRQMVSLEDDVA
UniProt Q9H0V9: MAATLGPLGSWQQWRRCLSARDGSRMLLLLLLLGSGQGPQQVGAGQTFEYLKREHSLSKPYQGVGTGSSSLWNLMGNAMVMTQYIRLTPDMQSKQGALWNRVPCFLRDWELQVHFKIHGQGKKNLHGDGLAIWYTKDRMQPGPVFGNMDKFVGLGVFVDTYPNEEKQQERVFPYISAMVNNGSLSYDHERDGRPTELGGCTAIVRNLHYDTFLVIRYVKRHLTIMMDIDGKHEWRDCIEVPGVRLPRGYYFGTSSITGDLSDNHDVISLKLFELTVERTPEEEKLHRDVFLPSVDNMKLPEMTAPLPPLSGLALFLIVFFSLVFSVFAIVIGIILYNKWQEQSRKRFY
UniProt P09382, whole entry, looked up: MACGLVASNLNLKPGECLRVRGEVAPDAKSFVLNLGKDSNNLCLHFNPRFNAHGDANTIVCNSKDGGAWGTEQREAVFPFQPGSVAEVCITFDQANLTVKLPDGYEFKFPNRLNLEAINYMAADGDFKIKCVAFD
UniProt Q99732: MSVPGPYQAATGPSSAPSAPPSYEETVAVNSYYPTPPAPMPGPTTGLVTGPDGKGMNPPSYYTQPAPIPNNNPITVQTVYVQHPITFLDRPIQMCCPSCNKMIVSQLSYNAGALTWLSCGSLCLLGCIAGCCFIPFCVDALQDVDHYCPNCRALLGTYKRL

Tests used:
Test in all cases: log2 fold change, soluble protein after heating vs DMSO (PISA); higher = thermal stabilisation; K562 lysate, 10 uM; active = over 0.2 and 3.5 SD of the protein, either way, in both replicates (recomputed)
nilotinib = compound: Cc1cn(-c2cc(NC(=O)c3ccc(C)c(Nc4nccc(-c5cccnc5)n4)c3)cc(C(F)(F)F)c2)cn1 [nilotinib]
Method in brief: (§1)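 K562 pellets were dounce-homogenised in PBS pH 7.4 containing 1 mM MgCl2, and the crude extract, at 1 mg/mL protein, was exposed to 10 μM compound for 30 min. Aliquots were heated for 3 min across 48°C-58°C, pooled, brought to 0.5% NP-40 at 4°C and spun at 21,000xg for 90 min, with the supernatant taken as soluble protein. TMTpro 16plex LC-MS/MS with equalised channel sums quantified that protein. Values are log-two fold changes in thermal stability relative to solvent controls, taken from duplicates.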

[1] = compound: Cc1nc(Nc2n[nH]c3c2CN(C(=O)N[C@H](CN(C)C)c2ccccc2)C3(C)C)c2sccc2n1
Method in brief: as §1

dasatinib = compound: Cc1nc(Nc2ncc(C(=O)Nc3c(C)cccc3Cl)s2)cc(N2CCN(CCO)CC2)n1 [dasatinib]
Method in brief: as §1

[2] = compound: Cc1ncc(-c2ccnc(Nc3ccc(S(C)(=O)=O)cc3)n2)n1C(C)C
Method in brief: as §1

[3] = compound: Cn1cc(-c2ccc3c(c2)CCN3C(=O)Cc2cccc(C(F)(F)F)c2)c2c(N)ncnc21
Method in brief: as §1

quisinostat = compound: Cn1cc(CNCC2CCN(c3ncc(C(=O)NO)cn3)CC2)c2ccccc21 [quisinostat]
Method in brief: as §1

tipifarnib = compound: Cn1cncc1[C@@](N)(c1ccc(Cl)cc1)c1ccc2c(c1)c(-c1cccc(Cl)c1)cc(=O)n2C [tipifarnib]
Method in brief: as §1

[4] = compound: NC(=O)Nc1cc(-c2cccc(F)c2)sc1C(=O)N[C@H]1CCCNC1
Method in brief: as §1

[5] = compound: NC(=O)c1cnc(N[C@@H]2CCCC[C@@H]2N)nc1Nc1cccc(-n2nccn2)c1
Method in brief: as §1

[6] = compound: NC1(c2ccc(-c3nc4ccn5c(=O)[nH]nc5c4cc3-c3ccccc3)cc2)CCC1
Method in brief: as §1

Measured: log2 fold change

LRRC8C (UniProt Q8TDW0)
inactive: nilotinib -0.148 | [1] 0.142 | dasatinib -0.064 | [2] 0.101 | [3] -0.063 | quisinostat -0.058 | tipifarnib 0.275 | [4] 0.011 | [5] -0.049 | [6] -0.032

LIG1 (UniProt P18858)
inactive: nilotinib -0.002 | [1] -0.001 | dasatinib 0.022 | [2] 0 | [3] 0.037 | quisinostat -0.017 | tipifarnib 0.001 | [4] 0.013 | [5] 0.015 | [6] 0

LTA4H (UniProt P09960)
inactive: nilotinib 0.011 | [1] 0 | dasatinib 0.028 | [2] -0.019 | [3] 0.01 | quisinostat 0.011 | tipifarnib 0.013 | [4] 0 | [5] -0.024 | [6] 0.028

LRBA, A0A494BZW2
inactive: nilotinib -0.305 | [1] -0.166 | dasatinib -0.099 | [2] 0.051 | [3] 0.037 | quisinostat -0.87 | tipifarnib 0.041 | [4] -0.222 | [5] -0.031 | [6] -0.001

LONRF2 (UniProt Q1L5Z9)
inactive: nilotinib 0.007 | [1] 0.03 | dasatinib -0.18 | [2] 0 | [3] 0.064 | quisinostat -0.083 | tipifarnib -0.059 | [4] -0.095 | [6] -0.07

LDHB (UniProt P07195)
inactive: nilotinib 0.018 | [1] -0.008 | dasatinib 0.016 | [2] 0.006 | [3] -0.029 | quisinostat -0.015 | tipifarnib 0.032 | [4] 0.005 | [5] -0.014 | [6] 0.004

LRRC40 (UniProt Q9H9A6)
inactive: nilotinib -0.008 | [1] -0.01 | dasatinib -0.012 | [2] -0.035 | [3] 0.017 | quisinostat 0.032 | tipifarnib -0.032 | [4] 0.004 | [5] 0.004 | [6] 0.029

LRRC4B (UniProt Q9NT99)
inactive: nilotinib -0.098 | [1] -0.079 | dasatinib 0.149 | [2] -0.06 | [3] 0.152 | quisinostat -0.143 | tipifarnib 0.048 | [4] 0.033 | [5] 0.12 | [6] -0.032

LPGAT1 (UniProt Q92604)
inactive: nilotinib 0.02 | [1] -0.044 | dasatinib 0.018 | [2] -0.056 | [3] -0.164 | tipifarnib -0.063 | [6] 0.139

LSM14B (UniProt Q9BX40)
inactive: nilotinib -0.22 | [1] 0.007 | [2] -0.115 | quisinostat -0.142 | tipifarnib -0.251 | [4] -0.01 | [5] -0.056 | [6] 0.016

LSR (UniProt Q86X29)
inactive: nilotinib 0.011 | [1] -0.05 | dasatinib 0.037 | [2] -0.094 | [3] -0.005 | quisinostat 0.013 | tipifarnib -0.04 | [4] 0.048 | [5] 0.001 | [6] 0.004

LPIN3 isoform 2 (UniProt Q9BQK8)
inactive: nilotinib -0.061 | [1] 0.059 | dasatinib -0.034 | [2] 0.023 | [3] 0.029 | quisinostat -0.053 | tipifarnib -0.038 | [4] 0.034 | [5] -0.095 | [6] 0.012

LRCH1 isoform 3 (UniProt Q9Y2L9)
inactive: nilotinib -0.264 | [1] -0.162 | dasatinib 0.044 | [2] 0.03 | [3] -0.1 | tipifarnib 0.014 | [5] -0.127

LIN54 (UniProt Q6MZP7)
inactive: nilotinib 0.043 | [1] -0.112 | dasatinib -0.089 | [2] 0.073 | [3] -0.122 | quisinostat -0.018 | tipifarnib -0.083 | [4] 0.075 | [5] 0.001 | [6] 0.075

LIN9 isoform 2 (UniProt Q5TKA1)
inactive: nilotinib -0.051 | [1] 0.004 | dasatinib -0.043 | [2] 0.076 | [3] 0.029 | quisinostat -0.03 | tipifarnib -0.006 | [4] 0.01 | [5] -0.093 | [6] -0.025

LATS1 (UniProt O95835)
inactive: nilotinib -0.294 | [1] -0.114 | dasatinib -0.05 | [2] -0.047 | [3] 0.069 | tipifarnib 0.082 | [6] -0.131

LCLAT1 (UniProt Q6UWP7)
inactive: nilotinib -0.015 | [1] 0.011 | dasatinib 0.007 | [2] -0.011 | [3] -0.072 | quisinostat -0.159 | tipifarnib -0.067 | [4] 0.03 | [5] 0.037 | [6] 0.027

LRRFIP1 (UniProt Q32MZ4)
inactive: nilotinib -0.021 | [1] 0.002 | dasatinib 0.027 | [2] 0.019 | [3] 0.005 | quisinostat -0.007 | tipifarnib 0.001 | [4] -0.036 | [5] -0.009 | [6] 0.008

LMF2 (UniProt Q9BU23)
inactive: nilotinib 0.1 | [1] 0 | dasatinib -0.062 | [2] -0.11 | [3] -0.093 | quisinostat 0.037 | tipifarnib -0.099 | [4] -0.001 | [6] -0.054

LRRC42 (UniProt Q9Y546)
inactive: nilotinib -0.19 | [1] 0.045 | dasatinib -0.116 | [2] 0.043 | [3] -0.051 | quisinostat -0.059 | tipifarnib -0.006 | [4] 0.026 | [6] 0.062

LGALS8 isoform 2 (UniProt O00214)
inactive: nilotinib -0.01 | [1] 0.054 | dasatinib 0.025 | [2] 0.03 | [3] -0.011 | quisinostat -0.069 | tipifarnib -0.007 | [4] 0.026 | [5] -0.005 | [6] -0.022

Fetched one by one from the list above, 2 records:
LRRFIP1 (UniProt Q32MZ4)
inactive: nilotinib -0.021 | [1] 0.002 | dasatinib 0.027 | [2] 0.019 | [3] 0.005 | quisinostat -0.007 | tipifarnib 0.001 | [4] -0.036 | [5] -0.009 | [6] 0.008

LGALS8 isoform 2 (UniProt O00214)
inactive: nilotinib -0.01 | [1] 0.054 | dasatinib 0.025 | [2] 0.03 | [3] -0.011 | quisinostat -0.069 | tipifarnib -0.007 | [4] 0.026 | [5] -0.005 | [6] -0.022

(continued)

LCA5 (UniProt Q86VQ0)
inactive: nilotinib -0.069 | [1] 0.202 | [2] -0.109 | quisinostat 0.027 | tipifarnib 0.035 | [4] -0.017

LEPR (UniProt P48357)
inactive: nilotinib -0.014 | [1] -0.01 | dasatinib -0.031 | [2] -0.003 | [3] 0.073 | quisinostat 0.051 | tipifarnib 0.046 | [4] -0.026 | [5] 0.042 | [6] 0.009

LPCAT1 (UniProt Q8NF37)
inactive: nilotinib -0.039 | [1] 0.015 | dasatinib -0.084 | [2] 0.014 | [3] -0.045 | quisinostat 0.016 | tipifarnib 0.046 | [4] 0.008 | [5] 0.053 | [6] 0.033

LDLR (UniProt P01130)
inactive: nilotinib 0.031 | [1] -0.009 | dasatinib 0.057 | [2] 0.082 | [3] -0.067 | quisinostat 0.012 | tipifarnib -0.061 | [4] -0.06 | [5] -0.141 | [6] -0.042

LMAN2L isoform 2 (UniProt Q9H0V9)
inactive: nilotinib 0.028 | [1] 0.042 | dasatinib -0.035 | [2] 0.073 | [3] -0.023 | quisinostat -0.027 | tipifarnib -0.059 | [4] 0.003 | [5] 0.001 | [6] -0.006

LRRC8D (UniProt Q7L1W4)
inactive: nilotinib 0.053 | [1] -0.032 | dasatinib -0.032 | [2] 0.038 | [3] 0.018 | quisinostat 0 | tipifarnib -0.005 | [4] 0.011 | [5] 0.031 | [6] 0.004

LGALS1 (UniProt P09382)
inactive: nilotinib 0.037 | [1] 0.033 | dasatinib 0.002 | [2] 0.073 | [3] -0.028 | quisinostat -0.001 | tipifarnib 0.024 | [4] -0.034 | [5] -0.015 | [6] 0.002

LITAF (UniProt Q99732)
inactive: dasatinib 0.099 | [3] 0.114 | quisinostat -0.017 | [4] 0.002 | [5] 0.095 | [6] 0.116
